Data as given in patent publication US4233403A, “Amylase assay” (E. I. Du Pont de Nemours and Company, priority 1978, dated 1980).

Tested on: α-amylase
Test: amylase assay with nitrophenyl oligosaccharide substrate plus α-glucosidase, rate at 410 nm, standard curve
Format: biochemical
Conditions: two-variable optimization of substrate and α-glucosidase, pH 6.5, 37° C.
Description: A sample of α-(4-nitrophenyl) maltotetraoside (G4 pNp) prepared in accordance with Example 1H of U.S. Patent Application Ser. No. 704,975, filed on the same day as this application, was dissolved in 66.7 mM sodium phosphate buffer, pH 6.5, to provide various substrate concentrations ranging from 2 to 8 mg/3 ml. As described in U.S. Ser. No. 704,975, this substrate sample has been purified using a Sephadex® LH-20 Chromatographic Column. α-Glucosidase of various concentrations ranging from 2.5 to 12.5 International Units per three milliliters of solution (IU/3 ml) was then added to the substrate solution and the volume of the solution was brought up to 3.0 ml. […]
After the blank rate was measured at 410 nm, using a Gilford spectrophotometer, the reaction was initiated by adding 0.1 ml of an Elevated Enzyme Control Product sold by the E. I. du Pont de Nemours and Company (1150 Somogyi Units per deciliter (SU/dl) amylase) diluted 1:1 with Du Pont Enzyme Diluent. […] The total reaction rate was then measured using the Gilford spectrophotometer, and by subtracting the blank rate from the total rate, the net reaction rate was obtained.
Using these optimum values of G4 pNp and α-glucosidase in a reaction solution of 3 ml, the reaction rates for various amylase sample concentrations were measured and a standard curve was generated. From this curve, the sensitivity in mA/min/SU/dl was measured. […]

In the case of `O=[N+]([O-])c1ccc(O[C@H]2O[C@H](CO)[C@@H](O[C@H]3O[C@H](CO)[C@@H](O[C@H]4O[C@H](CO)[C@@H](O[C@H]5O[C@H](CO)[C@@H](O)[C@H](O)[C@H]5O)[C@H](O)[C@H]4O)[C@H](O)[C@H]3O)[C@H](O)[C@H]2O)cc1` [G4 pNp, α-(4-nitrophenyl) maltotetraoside], the “optimum concentration of substrate” value is reported as “approximately 4.0 mg/3 ml”.

With `O=[N+]([O-])c1ccc(O[C@H]2O[C@H](CO)[C@@H](O[C@H]3O[C@H](CO)[C@@H](O[C@H]4O[C@H](CO)[C@@H](O[C@H]5O[C@H](CO)[C@@H](O[C@H]6O[C@H](CO)[C@@H](O)[C@H](O)[C@H]6O)[C@H](O)[C@H]5O)[C@H](O)[C@H]4O)[C@H](O)[C@H]3O)[C@H](O)[C@H]2O)cc1` [G5 pNp, α-(4-nitrophenyl) maltopentaoside] the “optimum concentration of substrate” value was greater than 12.0 mg/3 ml.
